Reference: patent US7208273B2, “Common polymorphism in scn5a implicated in drug-induced cardiac arrhythmia” (University of Utah Research Foundation, priority 2000, dated 2007)

Test system: African-American individuals with SCN5A variant S1103Y
Details: in vivo

**Q.** How did the “arrhythmia after drug treatment” value turn out when `CCCCc1oc2ccccc2c1C(=O)c1cc(I)c(OCCN(CC)CC)c(I)c1` [amiodarone] was run?
**A.** The value was “experienced arrhythmia”.
